The source of these data is patent publication US20230416352A1.

The chains behind the UniProt entries cited, without tags or fusion partners. Residues count along the entry.
UniProt P29279, residues 27-349: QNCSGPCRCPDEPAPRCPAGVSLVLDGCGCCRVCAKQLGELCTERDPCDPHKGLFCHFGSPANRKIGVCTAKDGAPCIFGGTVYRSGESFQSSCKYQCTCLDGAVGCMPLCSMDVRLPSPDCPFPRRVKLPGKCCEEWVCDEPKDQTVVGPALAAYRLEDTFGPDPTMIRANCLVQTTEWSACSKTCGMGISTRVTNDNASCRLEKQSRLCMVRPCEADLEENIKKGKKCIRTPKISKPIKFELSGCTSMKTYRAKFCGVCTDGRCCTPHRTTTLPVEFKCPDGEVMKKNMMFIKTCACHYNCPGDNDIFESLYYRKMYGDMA

Substitutions are numbered along the chain they refer to. No constants are given. Whether binding was seen depends on the method and setting. Some binding calls cover weakened binding; strength is not graded here.

To fix the notation:
B1: Hu164-68wl (antibody, human IgG1, lambda, V domains shown)
VH: EVTLKESGPVLVKPTETLTLTCTVSGFSLSTFGVHWIRQPPGKGLEWLGVIWRRGGTDYNAAFMSRLTISKDTSKSQVVFTMTNMDPVDTATYYCARDGGFDYWGQGTTVTVSS
VL: ETVVTQEPSFSVSPGGTVTLTCRSSIGAVTTSNYANWVQQTPGQAFRGLIGGTSNRAPGVPDRFSGSILGNKAALTITGAQADDESDYYCALWYSTHYVFGGGTKLTVLG
B2: Hu164-69wl (antibody, human IgG1, lambda, V domains shown)
VH: B1 VH
VL: ESVVTQPPSVSGAPGQRVTISCRSSIGAVTTSNYANWVQQLPGTAFKGLIGGTSNRAPGVPDRFSGSKSGTSASLAITGLQAEDEADYYCALWYSTHYVFGGGTKLTVLG
B3: Hu164-77wl (antibody, human IgG1, lambda, V domains shown)
VH: EVQLQESGPGLVKPSQTLSLTCTVSGFSISTFGVHWIRQHPGKGLEWIGVIWRRGGTDYNAAFMSRVTISKDTSKNQVSLKLSSVTAADTAVYYCARDGGFDYWGQGTTVTVSS
VL: ETVVTQEPSLTVSPGGTVTLTCRSSIGAVTTSNYANWVQQKPGQAFRGLIGGTSNRAPWTPARFSGSLLGGKAALTLSGVQPEDEAEYYCALWYSTHYVFGGGTKLTVLG
B4: Hu164-87wl (antibody, human IgG1, lambda, V domains shown)
VH: B3 VH with I48L, V67L, L80F
VL: B3 VL
B5: Hu164-57wl (antibody, human IgG1, lambda, V domains shown)
VH: B1 VH with G44A, G49A, F80L
VL: B3 VL
B6: Hu147-11wk (antibody, human IgG1, kappa, V domains shown)
VH: EVQLVESGGGLVQPGGSLRLSCAASGFTFSTYAMNWVRQAPGKGLEWVGRIRTKSNNYATYYADSVKDRFTISRDDSKNSLYLQMNSLKTEDTAVYYCVETGFAYWDQGTLVTVSS
VL: EIVLTQSPATLSLSPGERATLSCSASSSVSYMHWFQQKPGQSPRLLIYSTSNLASGIPARFSGSGSGTDYTLTISSLEPEDFAVYYCQQRSSYPLTFGQGTKLEIKR
B7: Hu147-32wk (antibody, human IgG1, kappa, V domains shown)
VH: B6 VH with T28S, S30N, G49A, K78E, N79S
VL: B6 VL with R44K
B8: Hu147-34wk (antibody, human IgG1, kappa, V domains shown)
VH: B6 VH with T28S, S30N, G49A, K78E, N79S
VL: DIQMTQSPSSLSASVGDRVTITCSASSSVSYMHWFQQKPGKSPKLLIYSTSNLASGVPSRFSGSGSGTDYTLTISSLQPEDFATYYCQQRSSYPLTFGQGTKLEIKR
B9: Hu147-22wk (antibody, human IgG1, kappa, V domains shown)
VH: B6 VH with S30N, G49A
VL: B6 VL with R44K
B10: Hu147-33wk (antibody, human IgG1, kappa, V domains shown)
VH: B6 VH with T28S, S30N, G49A, K78E, N79S
VL: B6 VL with R44K, L46W, I57V
B11: Hu147-23wk (antibody, human IgG1, kappa, V domains shown)
VH: B6 VH with S30N, G49A
VL: B6 VL with R44K, L46W, I57V
B12: Hu147-14wk (antibody, human IgG1, kappa, V domains shown)
VH: B6 VH
VL: B8 VL
B13: Hu147-15wk (antibody, human IgG1, kappa, V domains shown)
VH: B6 VH
VL: B8 VL with M4L, L46W
B14: Hu147-24wk (antibody, human IgG1, kappa, V domains shown)
VH: B6 VH with S30N, G49A
VL: B8 VL
B15: Hu147-13wk (antibody, human IgG1, kappa, V domains shown)
VH: B6 VH
VL: B6 VL with R44K, L46W, I57V
B16: Hu147-31wk (antibody, human IgG1, kappa, V domains shown)
VH: B6 VH with T28S, S30N, G49A, K78E, N79S
VL: B6 VL
B17: Hu147-21wk (antibody, human IgG1, kappa, V domains shown)
VH: B6 VH with S30N, G49A
VL: B6 VL
B18: Hu147-12wk (antibody, human IgG1, kappa, V domains shown)
VH: B6 VH
VL: B6 VL with R44K
B19: Hu95-51yk (antibody, human IgG1, kappa, V domains shown)
VH: EVQLVQSGAEVKKPGASVKVSCRASGFTFTNYAIHWVKQAPGQRLEWMGLVYPYTGGTAYNQKFKDKVTLTFDTSASTAYMELSSLRSEDTAVYYCARWGMIPGTNSYFDVWGQGTTVTVSS
VL: EIVLTQSPATLSLSPGERATLSCRASSSVSYIHWYQQKPGQAPRPWIYATSNLASGIPARFSGSGSGTDYTLTISRLEPEDFAVYYCQQWNSNPWTFGGGTKVEIKR

The target in the first assay is human CTGF protein (R&D, Cat No. 9190-CC) (human) (UniProt P29279). Put plainly: ELISA, plate coated with human CTGF protein, HRP anti-human secondary antibody, OD450.
With B1, the binding entry is on record as “binds”.

On to B2, for which the binding result is “binds”.

With B3, the binding entry is recorded as “binds”.

In the case of B4, the binding result is recorded as “binds”.

For B5, the binding result was “binds”.

For the next assay the target is unchanged. Put plainly: ELISA, plate coated with human CTGF (R&D). On the technique in general: In an ELISA, binding on a coated surface is turned into a signal by an enzyme label.
In the case of B1, the binding result was “binds”.

B2: the binding result is recorded as “binds”.

In the case of B6, the binding entry is “binds”.

On to B7, for which the binding result is “binds”.

As to B8, the binding entry was “binds”.

In the case of B9, the binding result is reported as “binds”.

Consider B10, for which the binding result is listed as “binds”.

For B11, the binding entry is listed as “binds”.

B12: the binding result is listed as “binds”.

Regarding B13, the binding entry is on record as “binds”.

Take B14: the binding entry was “binds”.

As to B15, the binding result is reported as “binds”.

Turning to B16, the binding result was “binds”.

As to B17, the binding entry was “binds”.

Take B18: the binding entry is “binds”.

Consider B3, for which the binding result was “binds”.

B4: the binding result is “binds”.

For the molecule B5, the binding entry is “binds”.

As to B19, the binding result was “binds”.
